Assay results published in PMC6387701.
Results are given in words; binding and its absence hold for the method and conditions named. For some of these results: Binding seen in cells or lysates may run through a third protein. Some binding calls cover weakened binding; strength is not graded here.

The chains behind the UniProt entries cited, without tags or fusion partners. Where a name states a change or a piece, a line headed by the entry shows the natural chain unless it says otherwise.
UniProt Q12905: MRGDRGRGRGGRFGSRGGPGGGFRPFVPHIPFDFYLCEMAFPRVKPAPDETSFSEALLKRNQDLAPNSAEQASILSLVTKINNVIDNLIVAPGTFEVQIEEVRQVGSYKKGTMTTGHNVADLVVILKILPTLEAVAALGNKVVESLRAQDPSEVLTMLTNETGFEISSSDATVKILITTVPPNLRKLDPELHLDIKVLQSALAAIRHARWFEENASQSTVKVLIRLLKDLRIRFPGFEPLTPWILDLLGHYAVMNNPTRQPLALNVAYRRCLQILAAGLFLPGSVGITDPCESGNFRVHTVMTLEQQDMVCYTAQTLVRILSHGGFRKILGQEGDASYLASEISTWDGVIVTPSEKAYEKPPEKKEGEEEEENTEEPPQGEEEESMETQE
UniProt P16220-1: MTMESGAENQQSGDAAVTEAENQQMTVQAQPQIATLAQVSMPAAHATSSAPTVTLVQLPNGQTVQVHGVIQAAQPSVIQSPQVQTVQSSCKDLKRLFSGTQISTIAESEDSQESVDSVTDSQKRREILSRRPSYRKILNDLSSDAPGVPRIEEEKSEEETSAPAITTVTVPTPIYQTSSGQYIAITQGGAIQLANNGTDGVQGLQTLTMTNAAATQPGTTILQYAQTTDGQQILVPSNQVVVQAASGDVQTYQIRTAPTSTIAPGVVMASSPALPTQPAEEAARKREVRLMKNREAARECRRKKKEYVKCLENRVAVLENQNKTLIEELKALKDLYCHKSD

Experiments:
[1] = target: Interleukin enhancer binding factor 2 (ILF2), endogenous (human (endogenous in Bel-7402 and SMMC-7721)) (UniProt Q12905); experiment: co-IP; endogenous proteins; Bel-7402 and SMMC-7721 lysates, IP with anti-CREB or anti-ILF2 antibodies and protein A/G-Sepharose overnight at 4°C, western blot; IgG as negative control
[2] = target: purified protein CREB (Abnova #H00001385-P01) (human) (UniProt P16220); experiment: co-IP; in vitro reciprocal co-IP of purified CREB and ILF2 proteins with anti-CREB or anti-ILF2 antibodies, with DTT, western blot; both purified
[3] = target: human ILF2-FLAG (lentiviral-based expression plasmid) (human) (UniProt Q12905); experiment: co-IP; HA-tagged CREB constructs and ILF2-FLAG transfected into Bel-7402 cells; lysates immunoprecipitated with anti-HA or anti-FLAG antibodies, western blot
[4] = target: WT-CREB (pcDNA3.1(+), HA-tagged) (human) (UniProt P16220); experiment: as above
[5] = target: hCREB-HA (lentiviral-based expression plasmid) (human) (UniProt P16220); experiment: as above
[6] = target: Cyclic adenosine monophosphate (cAMP) response element-binding protein (CREB), endogenous (human (endogenous in Bel-7402 and SMMC-7721)) (UniProt P16220); experiment: proximity ligation; Duolink in situ red kit on cells fixed with 4% PFA; anti-CREB with anti-ILF2 or anti-ILF3; signal when probes are less than 40 nm apart
[7] = target: Cyclic adenosine monophosphate (cAMP) response element-binding protein (CREB), endogenous (human (endogenous in Bel-7402 and SMMC-7721)) (UniProt P16220); experiment: co-IP; endogenous proteins; Bel-7402 and SMMC-7721 lysates, IP with anti-CREB or anti-ILF2 antibodies and protein A/G-Sepharose overnight at 4°C, western blot; IgG as negative control

Cyclic adenosine monophosphate (cAMP) response element-binding protein (CREB), endogenous (from UniProt P16220-1 1-341)
binding [1]: binds

purified protein ILF2 (Abnova #H00003608-P01) (from UniProt Q12905 1-390)
binding [2]: binds

hCREB-HA (lentiviral-based expression plasmid) (from UniProt P16220-1 1-341)
binding [3]: binds

human ILF2-FLAG (lentiviral-based expression plasmid) (from UniProt Q12905 1-390)
binding [4]: binds | binding [5]: binds

Interleukin enhancer binding factor 2 (ILF2), endogenous (from UniProt Q12905 1-390)
binding [6]: binds | binding [7]: binds
